Measured values reported in PMC6325638 (Clinics in liver disease, 2017).
Where two headings read alike, the source gives them in different places.

Tested on: zebrafish larvae
Settings: in vivo

## CCCCc1oc2ccccc2c1C(=O)c1cc(I)c(OCCN(CC)CC)c(I)c1 [Amiodarone]
0.66 μM
  Visual toxicity (bent tail, distended peritoneum, edema, pericardial congestion): 1/4
2 μM
  Visual toxicity (bent tail, distended peritoneum, edema, pericardial congestion): 0/4
6.6 μM
  Visual toxicity (bent tail, distended peritoneum, edema, pericardial congestion): 3/4
20 μM
  Visual toxicity (bent tail, distended peritoneum, edema, pericardial congestion): 2/4
